From the supplement of paper PMC6143611 come the findings set out here.

Assay [1] relates to Danio rerio larva rod photoreceptor outer segment. In words: rod outer segment growth distance Dg, difference from same-week DMSO control mean; higher = more outer segment growth. To be noted: 20 µM; treatment time: 4 days (6-10 dpf).
Assay [2] has the same test system. The assay can be described thus: rod outer segment shedding distance Ds, difference from same-week DMSO control mean; higher = less outer segment shedding. To be noted: 20 µM; treatment time: 4 days (6-10 dpf).

Where a name gives a salt, the structure may show the parent alone. ± gives the uncertainty stated by the source. The list shows a part of the results. Part of the spread comes from offsets between plates or batches.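 At 6 dpf, larvae had a heat-shock-induced fluorescent stripe placed in rod outer segments; shedding distance, from stripe to outer segment tip, was measured in confocal stacks, roughly three fish per compound. Controls received 0.2% DMSO vehicle; compounds were flagged for ≥20% change versus same-week control and p < 0.001 (Dunnett test, mixed-effects models).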

As for `CN(C)CCOc1ccc(-c2nc(-c3ccncc3)c(-c3ccc4c(c3)CC/C4=N\O)[nH]2)cc1`, in assay [1], the “rod outer segment growth distance Dg” value is -0.21 ± 0.24 um. Also, the “rod outer segment shedding distance Ds” value in assay [2] was -0.57 ± 0.34 um.

For `Nc1ccn([C@@H]2O[C@H](CO)[C@@H](O)C2(F)F)c(=O)n1` [Gemcitabine], the “rod outer segment growth distance Dg” value in assay [1] turned out to be 0.8 ± 0.31 um. Moreover, the “rod outer segment shedding distance Ds” value in assay [2] was -0.26 ± 0.19 um.

In the case of `NC(=O)c1cccc(-c2cccc(OC(=O)NC3CCCCC3)c2)c1`, the “rod outer segment growth distance Dg” value in assay [1] was determined as 0.22 ± 0.17 um. Also, the “rod outer segment shedding distance Ds” value in assay [2] was -0.83 ± 0.12 um.

Consider `COc1c(C)c2c(c(O)c1C/C=C(\C)CCC(=O)OCCN1CCOCC1)C(=O)OC2` [Mycophenolate Mofetil], for which, in assay [1], the “rod outer segment growth distance Dg” value was -0.73 ± 0.23 um. Moreover, in assay [2], the “rod outer segment shedding distance Ds” value was 0.41 ± 0.21 um.

Turning to `Nc1ccc(C(=O)Nc2cccc(-c3nc(N4CCOCC4)c4oc5ncccc5c4n3)c2)cn1`, the “rod outer segment growth distance Dg” value in assay [1] is -0.38 ± 0.21 um. The “rod outer segment shedding distance Ds” value in assay [2] is -0.39 ± 0.22 um.

For the compound `O=c1[nH]c(=O)n([C@H]2C[C@H](O)[C@@H](CO)O2)cc1F` [Floxuridine], the “rod outer segment growth distance Dg” value in assay [1] was 1.46 ± 0.18 um. Besides, the “rod outer segment shedding distance Ds” value in assay [2] is -0.61 ± 0.2 um.

As to `CC(C)(C)NS(=O)(=O)c1cncc(-c2cc(F)c3nc(N)nn3c2)c1`, the “rod outer segment growth distance Dg” value in assay [1] is -0.94 ± 0.21 um. Moreover, the “rod outer segment shedding distance Ds” value in assay [2] is -0.28 ± 0.14 um.

On to `O=C1c2c(O)ccc(O)c2C(=O)c2c(NCCNCCO)ccc(NCCNCCO)c21` [Mitoxantrone HCl], for which the “rod outer segment growth distance Dg” value in assay [1] is -0.02 ± 0.24 um. The “rod outer segment shedding distance Ds” value in assay [2] came to 0.96 ± 0.29 um.

Take `CC1CCN(CC[C@H]2CCCN2S(=O)(=O)c2cccc(O)c2)CC1`: the “rod outer segment growth distance Dg” value in assay [1] came out at 0.3 ± 0.16 um. Also, the “rod outer segment shedding distance Ds” value in assay [2] is -0.26 ± 0.12 um.

`Cc1coc2c1C(=O)C(=O)c1c-2ccc2c1CCCC2(C)C` [Tanshinone IIA]: in assay [1], the “rod outer segment growth distance Dg” value is -0.45 ± 0.18 um. The “rod outer segment shedding distance Ds” value in assay [2] turned out to be 0.83 ± 0.24 um.

For the compound `CN/C(=N\CCSCc1nc[nH]c1C)NC#N` [Cimetidine], the “rod outer segment growth distance Dg” value in assay [1] is -1.2 ± 0.18 um. For the same compound, the “rod outer segment shedding distance Ds” value in assay [2] is -0.79 ± 0.28 um.
